Assay results published in publication PMC11186368.
No constants are given. Whether binding was seen depends on the method and setting. For part of these data: Binding seen in cells or lysates may run through a third protein. Some results given as binding are weak or reduced against the parent protein; the word gives no strength. For part of these data: Sequences can lack the tags named with a protein. Each block holds one molecule with its values, some of them ahead of it.

Chains of the proteins cited; added tags and fusions are not shown.
UniProt P53350: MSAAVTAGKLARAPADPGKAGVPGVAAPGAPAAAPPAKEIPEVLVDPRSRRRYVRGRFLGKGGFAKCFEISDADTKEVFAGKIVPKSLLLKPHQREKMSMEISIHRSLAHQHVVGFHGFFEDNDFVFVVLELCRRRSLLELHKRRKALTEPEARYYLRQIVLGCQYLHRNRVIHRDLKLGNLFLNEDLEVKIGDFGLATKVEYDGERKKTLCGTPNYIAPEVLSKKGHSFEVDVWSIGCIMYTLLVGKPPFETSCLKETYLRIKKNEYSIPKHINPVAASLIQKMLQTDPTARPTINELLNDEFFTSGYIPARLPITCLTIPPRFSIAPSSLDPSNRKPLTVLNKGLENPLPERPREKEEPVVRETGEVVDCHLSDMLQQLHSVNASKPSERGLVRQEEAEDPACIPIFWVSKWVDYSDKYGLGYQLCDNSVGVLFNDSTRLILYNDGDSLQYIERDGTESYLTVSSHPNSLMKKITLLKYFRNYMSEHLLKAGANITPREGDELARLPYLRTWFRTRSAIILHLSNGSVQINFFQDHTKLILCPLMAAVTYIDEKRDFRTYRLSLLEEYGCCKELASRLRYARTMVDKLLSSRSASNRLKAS
UniProt Q14980: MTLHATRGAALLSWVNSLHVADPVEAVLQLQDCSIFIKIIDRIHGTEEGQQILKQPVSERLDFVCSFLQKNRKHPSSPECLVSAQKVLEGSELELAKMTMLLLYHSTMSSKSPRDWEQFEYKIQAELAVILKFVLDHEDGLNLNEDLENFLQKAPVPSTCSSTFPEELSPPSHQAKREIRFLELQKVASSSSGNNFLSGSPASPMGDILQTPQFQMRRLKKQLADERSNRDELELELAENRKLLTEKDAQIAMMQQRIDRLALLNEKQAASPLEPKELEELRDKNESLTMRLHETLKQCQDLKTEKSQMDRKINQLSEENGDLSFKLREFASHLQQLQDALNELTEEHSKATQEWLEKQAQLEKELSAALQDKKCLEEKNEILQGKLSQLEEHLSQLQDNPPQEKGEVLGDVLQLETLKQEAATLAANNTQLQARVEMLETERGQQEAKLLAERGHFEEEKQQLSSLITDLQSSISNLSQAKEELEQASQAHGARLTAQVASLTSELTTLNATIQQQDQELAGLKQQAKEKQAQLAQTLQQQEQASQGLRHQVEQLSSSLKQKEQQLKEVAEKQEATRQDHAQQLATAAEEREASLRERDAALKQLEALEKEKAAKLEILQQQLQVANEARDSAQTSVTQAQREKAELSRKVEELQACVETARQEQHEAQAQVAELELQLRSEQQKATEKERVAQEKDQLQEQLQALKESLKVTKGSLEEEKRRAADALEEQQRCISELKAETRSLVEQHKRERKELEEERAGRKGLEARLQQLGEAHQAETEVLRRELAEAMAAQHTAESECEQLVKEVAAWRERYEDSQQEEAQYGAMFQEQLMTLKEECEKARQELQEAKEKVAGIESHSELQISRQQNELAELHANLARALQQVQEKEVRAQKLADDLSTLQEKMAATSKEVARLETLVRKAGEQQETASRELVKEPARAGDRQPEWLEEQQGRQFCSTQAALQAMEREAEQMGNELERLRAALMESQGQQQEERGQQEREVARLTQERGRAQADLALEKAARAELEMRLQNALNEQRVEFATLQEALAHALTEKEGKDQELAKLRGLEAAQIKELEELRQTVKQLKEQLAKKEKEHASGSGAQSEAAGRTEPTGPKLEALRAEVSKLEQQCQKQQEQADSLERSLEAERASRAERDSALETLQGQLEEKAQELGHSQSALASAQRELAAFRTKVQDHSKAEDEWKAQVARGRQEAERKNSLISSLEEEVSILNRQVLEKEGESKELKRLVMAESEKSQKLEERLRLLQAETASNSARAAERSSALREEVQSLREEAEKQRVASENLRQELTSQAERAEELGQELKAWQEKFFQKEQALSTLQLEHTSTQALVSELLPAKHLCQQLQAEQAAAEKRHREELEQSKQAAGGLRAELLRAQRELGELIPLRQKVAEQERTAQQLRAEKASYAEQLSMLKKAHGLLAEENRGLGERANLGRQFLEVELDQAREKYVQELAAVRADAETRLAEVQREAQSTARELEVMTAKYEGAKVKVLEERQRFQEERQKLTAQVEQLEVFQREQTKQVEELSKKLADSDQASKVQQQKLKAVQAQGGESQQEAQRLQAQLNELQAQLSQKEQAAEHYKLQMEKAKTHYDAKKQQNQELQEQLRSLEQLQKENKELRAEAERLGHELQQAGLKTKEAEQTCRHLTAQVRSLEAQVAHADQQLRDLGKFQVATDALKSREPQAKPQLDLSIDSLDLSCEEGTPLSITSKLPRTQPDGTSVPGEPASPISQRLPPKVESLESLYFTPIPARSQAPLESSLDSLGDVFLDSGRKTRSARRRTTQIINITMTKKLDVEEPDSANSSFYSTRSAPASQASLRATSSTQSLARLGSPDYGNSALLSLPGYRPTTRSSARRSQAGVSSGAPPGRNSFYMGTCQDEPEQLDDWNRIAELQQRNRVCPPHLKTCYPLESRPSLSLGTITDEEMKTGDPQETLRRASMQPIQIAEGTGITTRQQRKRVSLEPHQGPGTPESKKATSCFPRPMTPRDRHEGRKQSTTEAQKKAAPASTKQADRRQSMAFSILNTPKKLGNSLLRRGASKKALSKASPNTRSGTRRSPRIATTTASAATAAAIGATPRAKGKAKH
UniProt P63208: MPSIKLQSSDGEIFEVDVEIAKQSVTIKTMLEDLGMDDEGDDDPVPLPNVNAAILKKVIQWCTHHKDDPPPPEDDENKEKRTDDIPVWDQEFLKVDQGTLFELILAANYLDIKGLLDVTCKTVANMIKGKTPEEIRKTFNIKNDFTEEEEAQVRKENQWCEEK
UniProt Q969H0: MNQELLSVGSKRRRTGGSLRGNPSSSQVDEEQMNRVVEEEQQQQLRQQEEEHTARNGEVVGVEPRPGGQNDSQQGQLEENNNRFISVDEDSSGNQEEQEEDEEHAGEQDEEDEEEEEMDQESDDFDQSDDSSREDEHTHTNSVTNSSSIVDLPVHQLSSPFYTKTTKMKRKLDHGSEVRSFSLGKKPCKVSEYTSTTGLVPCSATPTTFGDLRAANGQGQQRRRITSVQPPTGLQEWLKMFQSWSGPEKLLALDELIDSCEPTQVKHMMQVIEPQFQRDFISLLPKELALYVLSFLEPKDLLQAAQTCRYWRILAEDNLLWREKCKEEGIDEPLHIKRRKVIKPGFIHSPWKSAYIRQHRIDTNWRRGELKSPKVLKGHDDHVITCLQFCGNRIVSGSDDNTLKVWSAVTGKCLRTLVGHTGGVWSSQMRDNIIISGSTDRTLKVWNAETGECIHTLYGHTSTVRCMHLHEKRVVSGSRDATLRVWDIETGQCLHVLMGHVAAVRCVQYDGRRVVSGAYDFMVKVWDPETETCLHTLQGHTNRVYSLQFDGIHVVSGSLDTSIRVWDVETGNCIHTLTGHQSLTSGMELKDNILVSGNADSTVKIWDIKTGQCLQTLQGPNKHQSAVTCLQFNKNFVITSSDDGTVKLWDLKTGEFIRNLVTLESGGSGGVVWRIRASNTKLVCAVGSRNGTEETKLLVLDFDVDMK

Legend:
[1] = biological target: T1, Cysteine-rich angiogenic inducer 61 (CYR61), endogenous (human (endogenous in HeLa, MDA-MB-231, H1299)) (UniProt O00622); experiment: co-IP; endogenous proteins; cell lysates (RIPA buffer) of HeLa, for tubulins also MDA-MB-231 and H1299, immunoprecipitated with antibody or IgG overnight at 4 °C, washed with NETN buffer, immunoblot
T1 sequence: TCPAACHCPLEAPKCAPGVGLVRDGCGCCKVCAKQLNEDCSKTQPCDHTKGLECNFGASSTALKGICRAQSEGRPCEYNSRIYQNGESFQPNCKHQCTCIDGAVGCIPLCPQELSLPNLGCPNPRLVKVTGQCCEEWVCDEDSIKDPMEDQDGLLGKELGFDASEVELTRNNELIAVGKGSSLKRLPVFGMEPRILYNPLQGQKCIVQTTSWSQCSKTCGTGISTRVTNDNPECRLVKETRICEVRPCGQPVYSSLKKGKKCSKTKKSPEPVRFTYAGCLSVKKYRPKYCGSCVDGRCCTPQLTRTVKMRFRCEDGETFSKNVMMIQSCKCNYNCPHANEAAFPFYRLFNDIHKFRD

[2] = biological target: T2, Myc-CYR61 (HEK293T) (human) (UniProt O00622); experiment: co-IP; HEK293T cells co-expressing Myc-CYR61 and Flag-PLK1; anti-Myc or anti-Flag beads; immunoblot
T2 sequence: T1 sequence

[3] = biological target: T3, CYR61 in the IP assays of Figure S1 (human) (UniProt O00622); experiment: co-IP; IP assays of Figure S1; cells, bait and antibodies not shown
T3 sequence: T1 sequence

[4] = biological target: Flag-PLK1 (HEK293T) (human) (UniProt P53350); experiment: co-IP; HEK293T cells co-expressing Myc-CYR61 and Flag-PLK1; anti-Myc or anti-Flag beads; immunoblot
[5] = biological target: WT PLK1 (HeLa, transfected) (human) (UniProt P53350); experiment: co-IP; HeLa cells transfected with CYR61 and PLK1 wild type, deletion mutants or single domains; anti-Myc (Figure 3G) or anti-Flag (Figure 3H) beads; immunoblot
[6] = biological target: GST-PLK1-WT (human) (UniProt P53350); experiment: pull-down; His-CYR61-WT incubated with GST or GST-PLK1-WT at 4 °C overnight, then anti-GST beads, western blot; both purified

Molecule: Flag-PLK1 (HEK293T) (from UniProt P53350 1-603) (enzyme)
binding [2]: binds

Molecule: NUMA (from UniProt Q14980 1-2115)
binding [3]: binds

Molecule: SKP1, endogenous (from UniProt P63208 1-163)
binding [1]: binds

B2: Myc-CYR61 wild type (HeLa) (protein, UniProt O00622 25-381)
chain: T1 sequence
binding [5]: binds

Results, then the molecule that gave them:

binding [1]: binds
Molecule: FBW7, endogenous (from UniProt Q969H0 1-707)

binding [1]: binds
Molecule: PLK1, endogenous (from UniProt P53350 1-603) (enzyme)

binding [4]: binds
B1: Myc-CYR61 (HEK293T) (protein, UniProt O00622 25-381)
chain: T1 sequence

binding [6]: binds
B3: His-CYR61-WT (protein, UniProt O00622 25-381)
chain: T1 sequence

binding [3]: binds
B4: DVL-1 (protein, UniProt O14640 1-695)
chain: MAETKIIYHMDEEETPYLVKLPVAPERVTLADFKNVLSNRPVHAYKFFFKSMDQDFGVVKEEIFDDNAKLPCFNGRVVSWLVLAEGAHSDAGSQGTDSHTDLPPPLERTGGIGDSRPPSFHPNVASSRDGMDNETGTESMVSHRRERARRRNREEAARTNGHPRGDRRRDVGLPPDSASTALSSELESSSFVDSDEDGSTSRLSSSTEQSTSSRLIRKHKRRRRKQRLRQADRASSFSSITDSTMSLNIVTVTLNMERHHFLGISIVGQSNDRGDGGIYIGSIMKGGAVAADGRIEPGDMLLQVNDVNFENMSNDDAVRVLREIVSQTGPISLTVAKCWDPTPRSYFTVPRADPVRPIDPAAWLSHTAALTGALPRYGTSPCSSAVTRTSSSSLTSSVPGAPQLEEAPLTVKSDMSAVVRVMQLPDSGLEIRDRMWLKITIANAVIGADVVDWLYTHVEGFKERREARKYASSLLKHGFLRHTVNKITFSEQCYYVFGDLCSNLATLNLNSGSSGTSDQDTLAPLPHPAAPWPLGQGYPYQYPGPPPCFPPAYQDPGFSYGSGSTGSQQSEGSKSSGSTRSSRRAPGREKERRAAGAGGSGSESDHTAPSGVGSSWRERPAGQLSRGSSPRSQASATAPGLPPPHPTTKAYTVVGGPPGGPPVRELAAVPPELTGSRQSFQKAMGNPCEFFVDIM
